No constants are given. Whether binding was seen depends on the method and setting. In cells and extracts the contact can be indirect. A result given as binding can be weak or reduced; the word gives no strength. Tags and fused reporters may be left off the sequences shown.

Experimental findings from PMC11199475 are described below.

For assay [1], the target named is OsNRFG6, BiFC fusion (rice (Oryza sativa L.)). As to the kind of experiment: split reporter; BiFC: nYFP and cYFP fusions (p2YN/C system) co-infected into Nicotiana benthamiana leaves; confocal microscopy 3-5 days post infection.
Assay [2] concerns the target OsNRFG6, LCI fusion (rice (Oryza sativa L.)). As to the kind of experiment: split reporter; luciferase complementation imaging (LCI): nLUC and cLUC fusions (pCAMBIA1300) co-transformed into Nicotiana benthamiana leaves; 1 mM D-luciferin, CCD imaging at least 72 h post infiltration.

B1: LOG, BiFC fusion (enzyme, UniProt Q5ZC82 1-242)
chain: MAMEAAAERSAGAGAAATAAPESGGGGAGERRSRFRRICVYCGSAKGRKASYQDAAVELGKELVERGIDLVYGGGSIGLMGLVSHAVHDGGRHVIGVIPKSLMPREVTGEPVGEVRAVSGMHERKAEMARFADAFIALPGGYGTLEELLEVITWAQLGIHKKPVGLLNVDGFYDPFLSFIDMAVSEGFIAEDARRIIISAPTARELVLKLEEYVPEYEVGLVWDDQMPHSFAPDLETRITSS
For B1, the binding result in assay [1] is “binds”.

B2: LOG, LCI fusion (enzyme, UniProt Q5ZC82 1-242)
chain: B1 chain
For B2, the binding entry in assay [2] is on record as “binds”.
